In PubChem BioAssay AID652054 (National Center for Advancing Translational Sciences (NCATS), 2013):
About 9,100 (2.5%) of roughly 360,000 compounds were called active. The inconclusive results got no clear call from the source; some entries with a clear call stand among them for comparison. Rule as the data show it: active = max response below about -50%; inconclusive = no clear call, values can overlap the other calls; inactive = above that.

The chains behind the UniProt entries cited, without tags or fusion partners.
UniProt P35462, whole entry, looked up: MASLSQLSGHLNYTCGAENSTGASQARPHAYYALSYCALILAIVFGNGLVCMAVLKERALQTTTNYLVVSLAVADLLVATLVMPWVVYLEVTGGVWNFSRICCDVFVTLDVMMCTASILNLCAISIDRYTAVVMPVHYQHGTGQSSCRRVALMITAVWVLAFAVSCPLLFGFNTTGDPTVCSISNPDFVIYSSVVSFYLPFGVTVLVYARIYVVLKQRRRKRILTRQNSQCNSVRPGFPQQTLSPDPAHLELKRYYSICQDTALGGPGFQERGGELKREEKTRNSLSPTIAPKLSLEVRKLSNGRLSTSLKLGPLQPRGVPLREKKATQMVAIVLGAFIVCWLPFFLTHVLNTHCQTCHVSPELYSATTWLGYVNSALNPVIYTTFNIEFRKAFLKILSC

The molecules below were run against D(3) dopamine receptor (Homo sapiens) (UniProt P35462) (assay: qHTS of D3 Dopamine Receptor Antagonist: qHTS). Conditions: D3R cells, DiscoveRx beta-arrestin luminescence, antagonist mode; stronger effect = lower value.
Summary of the method: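 Cells plated overnight at 1500 cells/well, then exposed to library compounds with dopamine controls for 90 minutes at 37 degrees C. DiscoveRx reagent added for 30–60 minutes at room temperature; luminescence read, quantitative HTS format.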
% is scaled to controls: 0 for no effect and ±100 for the full control effect.

| SMILES | max response, negative = inhibition |
| --- | --- |
| CN(Cc1ccccc1)c1ccc(N2C(=O)CCC2=O)cc1[N+](=O)[O-] | inconclusive: -34.6% |
| Cc1ccc(S(=O)(=O)N2CCOCC2)cc1C(=O)OCC(=O)N1CCCCC1 | inactive: 3.26% |
| Cc1[nH]n(C(N)=S)c(=O)c1N=Nc1cccc(Cl)c1 | inconclusive: -38.2% |
| CC[C@H](CO)Oc1cc(NCc2ccc(Cl)c(Cl)c2)c2ncn(C(C)C)c2c1 | inconclusive: -42.7% |
| COc1cccc(CNS(=O)(=O)c2ccc(-n3cnnn3)c(C)c2)c1 | inactive: -23.1% |
| Cc1cccc(C)c1NC(=O)C(NC(=O)c1ccccn1)c1ccc([N+](=O)[O-])cc1 (stereo not drawn) | active: -52.5% |
| Cn1c2ccccc2c2cnn(CC(=O)NCCCN3CCN(c4ccccc4F)CC3)c(=O)c21 | active: -90% |
| COc1ccc([N+](=O)[O-])cc1NS(=O)(=O)c1cccc(C(=O)OC2CCOC2=O)c1 (stereo not drawn) | inconclusive: -42.5% |
| Cc1ccccc1NC(=O)c1c(-c2ccccc2)noc1C | inconclusive: -34% |
| CC(C)(C)[C@H]1C=C(C(=O)N2CCOCC2)O[C@@H](OCc2ccc(CO)cc2)C1 | active: -51.8% |
| CCc1nc2ccc(C(=O)N3CCN(S(=O)(=O)CC)CC3)cn2c1N(CC)Cc1cccc(Br)c1 | inactive: -1.13% |
| CCN(CC)c1ccc(/C=N/NC(=S)NCc2ccco2)cc1 | inconclusive: -43.8% |
| CCc1nnc(NS(=O)(=O)c2ccc(N=Cc3c(C)[nH]n(-c4ccc(C)c(C)c4)c3=O)cc2)s1 | inactive: 23.6% |
| COc1ccccc1N1CCCSC1=Nc1ccccc1 | inactive: 4.81% |
| Cn1c(CSCc2ccccc2)nnc1SCC(=O)Nc1ccc(C(=O)O)cc1 | inactive: -13.6% |
| CC1CCCCN1C(=O)CCS(=O)(=O)c1cc2c(cc1Cl)NC(=O)CO2 (stereo not drawn) | inactive: 6.95% |
| CNC(=S)N(CCCO)Cc1cc2cc3c(cc2[nH]c1=O)OCO3 | inactive: -2.46% |
| COc1cc(C2NC(=O)C(C#N)=C(Nc3cccc(C)c3)S2)ccc1O (stereo not drawn) | inconclusive: -39% |
| COc1ccc(OC)c(S(=O)(=O)n2cccn2)c1 | inconclusive: -38.1% |
| O=C1/C(=C\c2cc(Cl)c(O)c(Cl)c2)SC(=S)N1Cc1ccccc1 | inactive: -24.5% |
| COc1ccc(S(=O)(=O)N2CCC(C(=O)NCCc3ccccc3)CC2)cc1OC | inactive: 29.9% |
| COc1ccc(S(=O)(=O)N(C(C)=O)c2ccc3oc(=O)sc3c2)cc1 | active: -58.6% |

| SMILES | max response, negative = inhibition |
| --- | --- |
| C=CCN1c2ccccc2[C@]23C[C@@H](C(=O)OC)N(C(=O)C4CCC4)C2=NC(C(=O)OC)=C(C(=O)OC)[C@H]13 | inactive: 0.179% |
| C/C(=N\NC(=O)c1ccc(C)cc1)C1C(=O)c2ccccc2C1=O | active: -89.4% |
| CCCN1Cc2cccc(C(=O)N3CCN(c4cc(Cl)ccc4C)CC3)c2C1=O | active: -50.8% |
| C=CCNC(=O)COC(=O)c1ccc(Cl)c(S(N)(=O)=O)c1 | inconclusive: -32.6% |
| Clc1ccc(Cc2noc(-c3cccs3)n2)cc1 | inconclusive: -33.2% |
| CSc1nc(N)nc(SCCS(=O)(=O)c2ccc(Cl)cc2)c1C#N | inactive: -15.2% |
| Cc1ccc(Cc2c(C3CCCCC3)nc3c(C)cc(Br)cn23)cc1 | inconclusive: -37.7% |
| COc1ccccc1OCCN1CSC(=S)N(C)C1 | inconclusive: -32.5% |
| Clc1cc(-c2ccccc2)nc(-c2ccccc2)n1 | inconclusive: -38.7% |
| CCOC(=O)c1ccc(NC(=S)N(CCN2CCCCCC2)Cc2ccco2)cc1 | inconclusive: -46.7% |
| CCN=C1S/C(=C\c2ccc(N3CCOCC3)cc2C)C(=O)N1CC | inactive: 14.9% |
| O=C(c1ccc([N+](=O)[O-])o1)N1CCN(Cc2ccccc2)CC1 | inconclusive: -31.8% |
| CCN(c1ccccc1)S(=O)(=O)c1ccc(C(=O)OC(C)C(=O)NCCC2=CCCCC2)cc1 (stereo not drawn) | inconclusive: -30.8% |
| CCOC(=O)c1ccc(NC(=O)Cn2ncc(Cl)c(Cl)c2=O)cc1 | inconclusive: -44.3% |
| CCc1nc2c(OCc3ccc(F)cc3)cccn2c1N(C)C(=O)c1ccco1 | inactive: -10.5% |
| Cc1ccc(S(=O)(=O)N(C)Cc2ccc(C(=O)N/N=C3\CC(=O)CC(C)(C)C3)cc2)cc1 | inactive: 7.22% |
| O=C(NCc1ccccc1)C(c1ccc(-c2ccccc2)cc1)N1CCN(C(=O)C2CCCO2)CC1 (stereo not drawn) | inactive: 1.81% |
| Cc1ccc(C(=O)NC(N2CCCC2)C(Cl)(Cl)Cl)cc1 (stereo not drawn) | inconclusive: -46.9% |
| CNc1ncnc2c1ncn2[C@@H]1O[C@H](CO)[C@@H](O)[C@H]1O | inactive: -7.53% |
| CS(=O)(=O)N(CC(=O)NCCc1ccccc1)C1CCCCC1 | inconclusive: -30.5% |
| COc1ccc2[nH]c3c(=O)n(Cc4ccco4)cnc3c2c1 | inconclusive: -36% |
| COc1ccc(N2CCN(C(=O)c3cc4c(-c5cccc(OC)c5)nn(C)c4s3)CC2)cc1 | inactive: 13.2% |

| SMILES | max response, negative = inhibition |
| --- | --- |
| O=P(c1ccc2c(c1)OCCO2)(N1CCOCC1)N1CCOCC1 | inconclusive: -41.3% |
| Oc1ccc(NCc2ccc(OCc3ccccc3)cc2)cc1 | inactive: -15.6% |
| O=C(NCCN1CCC(n2c(=O)[nH]c3ccccc32)CC1)c1ccccc1C(F)(F)F | active: -76.8% |
| COC(=O)c1[nH]c2cccc(OC)c2c1NC(=O)CN(C)CC1OCCO1 | inconclusive: -38.3% |
| O=C(Cn1nnc(-c2ccc(CN3CCOCC3)cc2)n1)Nc1nc(-c2ccccc2)cs1 | inconclusive: -48.1% |
| O=c1c(N=Nc2ccc(O)cc2)c(-c2ccccc2)[nH]n1-c1ccc([N+](=O)[O-])cc1 | active: -70.3% |
| Fc1ccc(OCCCCCN2CCCC2)cc1 | inactive: -17.2% |
| Cc1cccc(C)c1NC(=O)c1ccc(OCc2c(C)noc2C)cc1 | inconclusive: -35.7% |
| COc1ccc(/C=C/c2n[nH]c(=O)c(C#N)c2C)cc1 | inactive: 3.09% |
| CCc1ccc2c(c1)c(N=NC1=NC(=O)CS1)c(O)n2CC | active: -88.1% |
| CCN1CCN(S(=O)(=O)c2ccc(Cl)c(C(=O)NC(C)c3ccccc3Cl)c2)CC1 (stereo not drawn) | inconclusive: -42.2% |
| Cc1cc(N2CCN(C)CC2)nc(=S)[nH]1 | active: -80.9% |
| O=S(=O)(c1ccc(Cl)cc1)N1CCC(n2cccc2)CC1 | inconclusive: -30.1% |
| O=[N+]([O-])c1cccc(OCCN2CCC(Cc3ccccc3)CC2)c1 | active: -102% |
| Cn1c(=O)oc2cc(S(=O)(=O)Nc3ccc(Cl)cc3)ccc21 | inactive: 2.41% |
| O=C(CSCc1cnn(-c2ccccc2)c1-n1cccc1)N1CCN(Cc2ccccc2)CC1 | inconclusive: -42.7% |
| COc1ccc(-c2nn(-c3ccccc3)cc2C(=O)O)cc1OC | inactive: 4.57% |
| CCn1c(SCC(=O)OCc2ccccc2)nnc1-c1ccco1 | inactive: -9.35% |
| O=C(COc1ccc(Br)cc1)NNC(=O)c1ccc(-n2cncn2)c([N+](=O)[O-])c1 | inactive: 10.2% |
| CC(=O)c1ccc(N2CCN(CC3CCCCC3)CC2)cc1 | inconclusive: -39% |
| O=C(Oc1c(Cl)cc(Cl)c2cccnc12)N1CCOCC1 | inconclusive: -32.5% |
| CCc1nc2c(OCc3ccc(F)cc3)cccn2c1N(C)C(=O)COc1ccccc1 | inactive: 6.66% |

| SMILES | max response, negative = inhibition |
| --- | --- |
| CSc1ccc(/C=C/C(=O)c2ccc(NC(=O)Cc3ccccc3)cc2)cc1 | inconclusive: -33.2% |
| O=S(=O)(Nc1ccc(-c2ccc(NS(=O)(=O)c3ccccc3)cc2)cc1)c1ccccc1 | inconclusive: -34.7% |
| COc1cccc(N2CC(C)Cn3c2nc2c3c(=O)n(CCN3CCOCC3)c(=O)n2C)c1 (stereo not drawn) | active: -64% |
| COC(=O)c1cc(=O)n(CCc2ccccc2F)c(=Nc2ccc(F)c(Cl)c2)s1 | inconclusive: -40.6% |
| CN(C)CCCNc1nc2cc(-c3cccc(Cl)c3)sc2c(=O)n1C | active: -60% |
| O=C(N/N=C/c1cccs1)c1[nH]ncc1Br | inactive: -5.64% |
| CC1(C)Cc2c(c(=S)nc(-c3ccccc3)n2CCCN2CCOCC2)CO1 | inconclusive: -44% |
| CCN1CCCC1CNC(=O)c1cc(NC(C)=O)c(N(C)C)cc1OC (stereo not drawn) | active: -88.4% |
| CC(=O)Nc1ccc(S(=O)(=O)Nc2cccc3cccnc23)cc1 | inactive: -17.7% |
| CCCCOC(=O)C1C2C=C[C@]3(CN(CCCOC)C(=O)[C@H]13)O2 (stereo partly drawn) | active: -51.4% |
| CN(CCOC(=O)c1cccc(F)c1)Cc1ccccc1 | active: -88.2% |
| COc1ccccc1-n1c(=S)[nH]c2c(sc(=S)n2-c2ccccc2C)c1=O | active: -77.7% |
| CCCCOc1cccc(C(=O)NNC(=S)NC2CCCCC2)c1 | inconclusive: -37.2% |
| O=C(Oc1cccc2cccnc12)c1ccc2c(c1)OCCO2 | active: -84.4% |
| O=C(Cc1ccccc1)Nc1cccc(N2C(=O)C=CC2=O)c1 | inactive: 5.8% |
| NNC(=O)c1cc2c(ccc3ccccc32)o1 | inactive: -5.47% |
| CC(=O)c1cccc(CN2CCN(C3CCCCC3)C(CCO)C2)c1 (stereo not drawn) | active: -54.3% |
| O=C(N=Nc1c(O)n(Cc2ccccc2)c2ccccc12)c1cc2ccccc2cc1O | inconclusive: -34.1% |
| CCCc1cc(=O)oc2cc(OC(=O)CN3C(=O)NC4(CCCC4)C3=O)ccc12 | inconclusive: -38.5% |
| CC(C)(C)N(Cc1ccc2c(c1)OCO2)C(=O)/C=C\S(=O)c1ccccc1 (stereo not drawn) | inconclusive: -41.1% |
| COc1ccc(Cl)cc1NC(=O)CSc1nnc(Cc2cccn2C)n1-c1ccc(F)cc1 | inconclusive: -33% |
| COc1cc(CN(C)CCc2ccccc2)ccc1OCc1ccccc1 | inconclusive: -49.2% |

3 compounds out of the list, sorted by number of heavy atoms, ascending:

| SMILES | max response, negative = inhibition |
| --- | --- |
| O=C(Oc1cccc2cccnc12)c1ccc2c(c1)OCCO2 | active: -84.4% |
| CC(C)(C)N(Cc1ccc2c(c1)OCO2)C(=O)/C=C\S(=O)c1ccccc1 (stereo not drawn) | inconclusive: -41.1% |
| CCCc1cc(=O)oc2cc(OC(=O)CN3C(=O)NC4(CCCC4)C3=O)ccc12 | inconclusive: -38.5% |
